Results are given in words; binding and its absence hold for the method and conditions named. Binding calls can cover weak binding; strength is not graded here.
Biological target: T1, KELCH-repeat region of AtFKF1 (amino acids 284 to 619) (Arabidopsis thaliana) (UniProt Q9C9W9)
T1 sequence: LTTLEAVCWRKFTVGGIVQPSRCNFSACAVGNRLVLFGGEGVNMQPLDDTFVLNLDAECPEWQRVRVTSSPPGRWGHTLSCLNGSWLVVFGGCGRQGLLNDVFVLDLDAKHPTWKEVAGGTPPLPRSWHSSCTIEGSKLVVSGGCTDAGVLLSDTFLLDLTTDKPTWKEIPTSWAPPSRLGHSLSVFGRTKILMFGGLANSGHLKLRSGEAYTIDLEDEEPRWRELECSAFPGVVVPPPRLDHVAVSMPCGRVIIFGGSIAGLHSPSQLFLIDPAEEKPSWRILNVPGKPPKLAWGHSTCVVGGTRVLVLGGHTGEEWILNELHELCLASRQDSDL
Experiment: two-hybrid; prey in pDEST22 (AD) in yeast PJ69-4A mated with bait in pDEST32 (BD) in PJ69-4α; diploids plated on SD -Trp -Leu -His with 0, 1, 2, 10, 25, 50 and 100 mM 3-AT; colonies over 11 days at 28°C; two independent clones

Row | binding | Substance
1 | binds | MtCDFc1 (Medicago truncatula)
2 | no binding | MtCDFd1_1 (Medicago truncatula)

Source: paper PMC6761483
